These are yes or no findings as the source states them, for the method shown. Binding seen in cells or lysates may run through a third protein. Here binding means that the protein was enriched with, or labelled near, the bait; the list need not be complete.
Biological target: T1, FOXA1 (human (endogenous in HPAF-II, AsPC-1, Miapaca-2)) (UniProt P55317)
T1 sequence: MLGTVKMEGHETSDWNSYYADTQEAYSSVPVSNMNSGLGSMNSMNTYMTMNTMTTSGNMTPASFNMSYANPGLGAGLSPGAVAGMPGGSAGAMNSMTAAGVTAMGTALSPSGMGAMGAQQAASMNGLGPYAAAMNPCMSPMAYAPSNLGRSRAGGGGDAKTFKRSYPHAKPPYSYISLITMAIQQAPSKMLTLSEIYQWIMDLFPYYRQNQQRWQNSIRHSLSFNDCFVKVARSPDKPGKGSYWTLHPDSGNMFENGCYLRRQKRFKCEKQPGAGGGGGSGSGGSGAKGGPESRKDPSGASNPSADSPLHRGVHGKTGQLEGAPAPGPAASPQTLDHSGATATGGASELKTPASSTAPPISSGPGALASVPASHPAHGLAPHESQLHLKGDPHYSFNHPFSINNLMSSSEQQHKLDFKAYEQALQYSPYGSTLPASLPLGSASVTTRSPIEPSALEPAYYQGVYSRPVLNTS
Assay: affinity purification with mass spectrometry; RIME: cells cross-linked with 2 mM DSG and 1% formaldehyde, chromatin sonicated, endogenous FOXA1 immunoprecipitated overnight (Abcam ab5089 on Dynabeads), ten washes in RIPA buffer, LC-MS/MS, label-free quantification; HPAF-II, AsPC-1 and Miapaca-2 cells; three biological replicates and one pooled IgG control

Amino acid sequences for entries named in this document (tags omitted).
UniProt O75376: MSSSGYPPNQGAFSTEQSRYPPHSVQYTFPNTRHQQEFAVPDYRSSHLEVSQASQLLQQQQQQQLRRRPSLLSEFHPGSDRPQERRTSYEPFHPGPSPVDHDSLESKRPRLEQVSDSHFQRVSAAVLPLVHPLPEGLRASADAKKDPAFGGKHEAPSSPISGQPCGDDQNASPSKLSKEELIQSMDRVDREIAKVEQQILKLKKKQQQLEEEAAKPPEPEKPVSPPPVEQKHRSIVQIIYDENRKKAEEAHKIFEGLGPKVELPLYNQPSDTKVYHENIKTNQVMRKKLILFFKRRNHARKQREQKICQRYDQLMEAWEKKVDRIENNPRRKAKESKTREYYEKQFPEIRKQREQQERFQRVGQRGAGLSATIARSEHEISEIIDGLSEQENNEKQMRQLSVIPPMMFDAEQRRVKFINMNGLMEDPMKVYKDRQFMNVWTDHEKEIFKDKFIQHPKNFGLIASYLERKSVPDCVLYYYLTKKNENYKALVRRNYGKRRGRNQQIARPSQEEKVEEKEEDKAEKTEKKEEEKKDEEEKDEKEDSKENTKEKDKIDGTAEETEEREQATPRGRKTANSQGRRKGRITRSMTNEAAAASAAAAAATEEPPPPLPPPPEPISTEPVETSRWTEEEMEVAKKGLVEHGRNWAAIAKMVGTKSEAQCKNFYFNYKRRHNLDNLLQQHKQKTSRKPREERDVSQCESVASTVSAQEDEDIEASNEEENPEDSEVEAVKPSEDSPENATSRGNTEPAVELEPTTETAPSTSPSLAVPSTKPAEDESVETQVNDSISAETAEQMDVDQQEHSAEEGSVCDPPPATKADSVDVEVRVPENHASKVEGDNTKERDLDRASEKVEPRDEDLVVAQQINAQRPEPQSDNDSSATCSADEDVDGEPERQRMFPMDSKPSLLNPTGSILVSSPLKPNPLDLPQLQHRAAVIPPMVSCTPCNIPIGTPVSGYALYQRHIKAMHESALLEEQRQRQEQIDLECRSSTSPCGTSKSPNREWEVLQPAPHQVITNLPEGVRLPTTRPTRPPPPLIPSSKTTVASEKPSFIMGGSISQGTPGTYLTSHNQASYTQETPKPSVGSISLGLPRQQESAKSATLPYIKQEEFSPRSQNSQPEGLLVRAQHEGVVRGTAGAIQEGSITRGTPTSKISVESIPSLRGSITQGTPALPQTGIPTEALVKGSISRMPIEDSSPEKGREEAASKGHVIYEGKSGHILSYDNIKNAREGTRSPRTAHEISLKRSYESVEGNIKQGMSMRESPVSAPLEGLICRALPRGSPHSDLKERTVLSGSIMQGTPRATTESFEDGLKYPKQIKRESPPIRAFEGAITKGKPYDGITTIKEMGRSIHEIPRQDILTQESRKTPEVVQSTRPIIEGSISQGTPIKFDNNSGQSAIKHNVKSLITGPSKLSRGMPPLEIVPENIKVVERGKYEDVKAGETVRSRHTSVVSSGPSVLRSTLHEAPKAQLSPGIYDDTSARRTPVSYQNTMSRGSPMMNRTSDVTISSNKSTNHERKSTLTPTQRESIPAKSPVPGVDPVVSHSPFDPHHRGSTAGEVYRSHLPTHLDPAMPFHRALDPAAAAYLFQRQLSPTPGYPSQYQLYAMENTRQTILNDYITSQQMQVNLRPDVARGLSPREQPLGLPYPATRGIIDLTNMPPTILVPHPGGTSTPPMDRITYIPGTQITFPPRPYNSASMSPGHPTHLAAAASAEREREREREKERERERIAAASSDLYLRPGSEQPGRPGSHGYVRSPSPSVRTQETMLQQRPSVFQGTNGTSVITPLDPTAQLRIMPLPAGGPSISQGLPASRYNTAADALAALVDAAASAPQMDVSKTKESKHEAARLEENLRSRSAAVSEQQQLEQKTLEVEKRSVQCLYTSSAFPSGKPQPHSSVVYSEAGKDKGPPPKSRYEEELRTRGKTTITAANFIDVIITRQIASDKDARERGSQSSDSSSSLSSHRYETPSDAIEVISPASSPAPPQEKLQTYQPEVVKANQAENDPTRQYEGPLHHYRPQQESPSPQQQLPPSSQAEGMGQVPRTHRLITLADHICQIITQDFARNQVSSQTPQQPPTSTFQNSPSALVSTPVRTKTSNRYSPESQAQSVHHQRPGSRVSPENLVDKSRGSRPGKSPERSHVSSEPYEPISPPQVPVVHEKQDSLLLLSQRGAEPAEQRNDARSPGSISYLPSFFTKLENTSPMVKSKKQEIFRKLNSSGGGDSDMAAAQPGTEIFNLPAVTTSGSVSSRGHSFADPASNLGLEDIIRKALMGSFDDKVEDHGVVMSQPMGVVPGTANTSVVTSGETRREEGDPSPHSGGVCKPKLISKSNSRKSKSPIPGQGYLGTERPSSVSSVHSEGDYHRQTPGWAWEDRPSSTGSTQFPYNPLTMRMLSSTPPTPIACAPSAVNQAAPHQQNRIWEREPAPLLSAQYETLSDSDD
UniProt Q9Y6Q9: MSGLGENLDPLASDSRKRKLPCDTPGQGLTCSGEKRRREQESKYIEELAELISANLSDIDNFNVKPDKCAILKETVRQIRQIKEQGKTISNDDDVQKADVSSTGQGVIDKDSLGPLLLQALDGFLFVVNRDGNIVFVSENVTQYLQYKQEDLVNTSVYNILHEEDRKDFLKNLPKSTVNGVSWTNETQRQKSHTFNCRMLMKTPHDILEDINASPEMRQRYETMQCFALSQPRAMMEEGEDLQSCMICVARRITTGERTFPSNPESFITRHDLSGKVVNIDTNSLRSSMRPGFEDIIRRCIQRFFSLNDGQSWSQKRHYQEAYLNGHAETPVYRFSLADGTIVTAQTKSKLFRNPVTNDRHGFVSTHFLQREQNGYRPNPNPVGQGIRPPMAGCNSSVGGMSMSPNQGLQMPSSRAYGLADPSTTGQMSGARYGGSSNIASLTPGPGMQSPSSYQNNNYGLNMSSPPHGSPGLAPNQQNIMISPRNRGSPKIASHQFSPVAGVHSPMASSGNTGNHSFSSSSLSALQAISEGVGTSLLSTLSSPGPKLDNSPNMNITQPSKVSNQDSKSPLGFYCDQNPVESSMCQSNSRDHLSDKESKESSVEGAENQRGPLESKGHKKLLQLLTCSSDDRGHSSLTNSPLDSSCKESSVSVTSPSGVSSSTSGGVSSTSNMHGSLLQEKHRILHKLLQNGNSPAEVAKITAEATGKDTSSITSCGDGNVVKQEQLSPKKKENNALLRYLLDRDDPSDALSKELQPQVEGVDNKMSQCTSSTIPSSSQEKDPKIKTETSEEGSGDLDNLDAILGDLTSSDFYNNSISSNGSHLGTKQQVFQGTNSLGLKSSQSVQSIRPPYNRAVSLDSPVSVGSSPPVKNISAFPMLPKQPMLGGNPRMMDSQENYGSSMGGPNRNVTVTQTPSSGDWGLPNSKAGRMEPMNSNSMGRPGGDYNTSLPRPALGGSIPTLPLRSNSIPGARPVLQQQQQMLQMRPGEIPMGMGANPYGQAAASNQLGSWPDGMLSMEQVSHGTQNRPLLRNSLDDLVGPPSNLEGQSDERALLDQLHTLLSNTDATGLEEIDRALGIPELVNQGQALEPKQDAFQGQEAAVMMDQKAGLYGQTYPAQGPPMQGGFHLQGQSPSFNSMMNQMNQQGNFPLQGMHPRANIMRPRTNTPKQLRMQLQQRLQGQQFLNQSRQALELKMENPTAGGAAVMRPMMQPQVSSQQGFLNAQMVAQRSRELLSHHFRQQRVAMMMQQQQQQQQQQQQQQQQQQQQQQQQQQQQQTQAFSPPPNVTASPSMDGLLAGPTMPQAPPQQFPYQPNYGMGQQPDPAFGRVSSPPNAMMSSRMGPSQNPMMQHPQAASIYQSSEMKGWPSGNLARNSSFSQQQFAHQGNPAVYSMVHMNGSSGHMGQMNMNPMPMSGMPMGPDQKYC
UniProt Q92793: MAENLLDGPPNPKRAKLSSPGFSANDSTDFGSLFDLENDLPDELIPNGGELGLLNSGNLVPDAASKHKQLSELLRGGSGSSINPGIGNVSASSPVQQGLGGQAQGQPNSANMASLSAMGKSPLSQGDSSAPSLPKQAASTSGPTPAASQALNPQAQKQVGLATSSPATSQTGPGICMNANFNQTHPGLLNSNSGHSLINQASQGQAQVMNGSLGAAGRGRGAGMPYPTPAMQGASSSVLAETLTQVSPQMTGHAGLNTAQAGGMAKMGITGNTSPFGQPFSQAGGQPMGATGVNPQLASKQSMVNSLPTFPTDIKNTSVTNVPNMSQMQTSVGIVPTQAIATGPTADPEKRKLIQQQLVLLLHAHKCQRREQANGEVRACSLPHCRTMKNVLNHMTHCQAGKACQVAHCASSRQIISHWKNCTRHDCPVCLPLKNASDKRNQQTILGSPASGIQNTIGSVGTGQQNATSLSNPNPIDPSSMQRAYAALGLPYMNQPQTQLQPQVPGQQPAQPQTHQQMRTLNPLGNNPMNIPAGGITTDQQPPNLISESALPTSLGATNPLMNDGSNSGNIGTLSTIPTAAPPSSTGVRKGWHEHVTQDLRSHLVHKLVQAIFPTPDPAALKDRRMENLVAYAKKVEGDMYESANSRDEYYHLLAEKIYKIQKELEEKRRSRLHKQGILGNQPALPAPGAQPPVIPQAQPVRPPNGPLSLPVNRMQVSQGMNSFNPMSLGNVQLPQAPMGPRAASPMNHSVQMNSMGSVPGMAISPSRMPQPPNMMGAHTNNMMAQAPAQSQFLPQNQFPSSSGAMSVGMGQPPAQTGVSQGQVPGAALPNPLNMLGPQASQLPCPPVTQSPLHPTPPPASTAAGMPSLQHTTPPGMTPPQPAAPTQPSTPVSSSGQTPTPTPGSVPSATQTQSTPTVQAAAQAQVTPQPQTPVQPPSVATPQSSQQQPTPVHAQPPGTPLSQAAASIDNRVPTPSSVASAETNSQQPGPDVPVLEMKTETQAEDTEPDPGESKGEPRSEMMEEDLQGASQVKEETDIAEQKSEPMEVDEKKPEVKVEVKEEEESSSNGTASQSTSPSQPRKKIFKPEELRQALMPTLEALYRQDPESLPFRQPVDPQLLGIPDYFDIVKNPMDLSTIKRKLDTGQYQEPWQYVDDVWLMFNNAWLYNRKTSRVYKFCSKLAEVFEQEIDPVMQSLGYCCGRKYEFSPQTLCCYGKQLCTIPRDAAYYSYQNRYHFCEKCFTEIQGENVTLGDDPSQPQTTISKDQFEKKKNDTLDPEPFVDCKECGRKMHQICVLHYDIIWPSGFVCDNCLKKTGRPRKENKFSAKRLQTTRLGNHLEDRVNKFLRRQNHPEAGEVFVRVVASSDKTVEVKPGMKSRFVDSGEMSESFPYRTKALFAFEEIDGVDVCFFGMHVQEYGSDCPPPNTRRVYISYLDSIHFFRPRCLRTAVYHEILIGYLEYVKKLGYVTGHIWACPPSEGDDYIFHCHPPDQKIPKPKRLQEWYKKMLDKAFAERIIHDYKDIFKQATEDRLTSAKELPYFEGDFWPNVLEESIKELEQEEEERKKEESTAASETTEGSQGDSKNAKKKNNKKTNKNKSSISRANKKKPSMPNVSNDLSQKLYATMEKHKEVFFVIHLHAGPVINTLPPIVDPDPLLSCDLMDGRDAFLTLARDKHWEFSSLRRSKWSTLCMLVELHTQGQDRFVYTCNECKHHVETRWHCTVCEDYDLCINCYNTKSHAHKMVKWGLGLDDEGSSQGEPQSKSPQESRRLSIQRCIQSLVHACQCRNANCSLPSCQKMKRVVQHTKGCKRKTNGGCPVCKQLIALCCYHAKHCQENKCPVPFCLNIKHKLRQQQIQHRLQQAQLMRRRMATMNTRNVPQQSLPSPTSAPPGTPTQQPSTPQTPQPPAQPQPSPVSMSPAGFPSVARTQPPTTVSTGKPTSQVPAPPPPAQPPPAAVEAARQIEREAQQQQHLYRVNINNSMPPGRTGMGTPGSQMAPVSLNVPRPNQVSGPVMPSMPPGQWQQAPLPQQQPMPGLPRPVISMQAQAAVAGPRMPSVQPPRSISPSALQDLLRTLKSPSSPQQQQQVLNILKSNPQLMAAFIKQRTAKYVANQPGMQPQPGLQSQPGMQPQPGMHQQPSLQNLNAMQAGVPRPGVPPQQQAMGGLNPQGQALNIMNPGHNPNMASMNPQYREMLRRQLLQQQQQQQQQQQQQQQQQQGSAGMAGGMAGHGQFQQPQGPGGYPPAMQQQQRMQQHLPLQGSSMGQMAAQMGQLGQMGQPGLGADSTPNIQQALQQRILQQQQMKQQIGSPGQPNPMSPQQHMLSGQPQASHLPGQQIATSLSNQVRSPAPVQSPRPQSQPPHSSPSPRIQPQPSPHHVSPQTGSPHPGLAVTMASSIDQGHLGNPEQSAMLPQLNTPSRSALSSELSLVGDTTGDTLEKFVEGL

binding, binds:
protein arginine methyltransferase (PRMT1) (from UniProt Q99873 1-371) (enzyme)
NCOR1 (from UniProt O75376 1-2440)
GATA6 (from UniProt Q92908 1-595)
NCOA3 (from UniProt Q9Y6Q9 1-1424)
CBP (from UniProt Q92793 1-2442)

Biological target: T2, HNF4G (human (endogenous in HPAF-II, AsPC-1)) (UniProt Q14541)
T2 sequence: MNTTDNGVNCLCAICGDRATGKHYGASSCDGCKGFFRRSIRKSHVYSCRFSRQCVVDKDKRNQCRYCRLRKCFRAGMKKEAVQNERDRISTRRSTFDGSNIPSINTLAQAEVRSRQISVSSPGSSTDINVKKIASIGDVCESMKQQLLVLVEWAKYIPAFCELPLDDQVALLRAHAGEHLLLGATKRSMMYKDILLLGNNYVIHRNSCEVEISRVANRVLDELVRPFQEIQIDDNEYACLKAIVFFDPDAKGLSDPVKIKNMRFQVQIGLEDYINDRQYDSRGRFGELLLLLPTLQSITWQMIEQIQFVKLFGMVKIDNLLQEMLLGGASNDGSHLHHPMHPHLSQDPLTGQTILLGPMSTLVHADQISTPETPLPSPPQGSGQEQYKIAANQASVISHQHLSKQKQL
Assay: affinity purification with mass spectrometry; quantitative RIME data re-examined; the bait that gave the result for HNF4G is not told (Fig. 3a shows FOXA1-RIME in HPAF-II; an HNF4G antibody is listed in the RIME methods)

binding, binds:
protein arginine methyltransferase (PRMT1) (from UniProt Q99873 1-371) (enzyme)

Source: paper PMC12695649
